# Measurements reported in PubChem BioAssay AID256 (DTP/NCI, 2004).
# The list shows only some results of the screen, not a fair sample: it gathers tests that were run many times, whatever their T/C, doses with no T/C, and many T/C values between a quarter and a half above the control. Further doses and runs are listed elsewhere. T/C gives the treated animals as a percentage of the vehicle group. Some entries give survivors of the animals treated and no T/C: the source files T/C as zero there, which appears to mark a toxic dose or a test without result, not a measured value. Some survivor counts are full or nearly so, which does not show that the dose was tolerated: the source hardly ever lists a survival T/C far under the control, and the zero likely stands for such cases as well. Counts of survivors are from the toxicity check (mostly the fifth day) where no day follows; animals may have died later. Schedules are NCI's codes, taken here to give the interval after Q, in days (D) or hours (H), and the number of doses after X. Some entries hold several experiments; their values stand side by side, smallest first. Some structures stand for samples that the source files as different forms (salt, stereo form or complex); doses refer to the form tested. For survival time, the PubChem record calls one and a half times the control and up active, and a quarter to a half above the control has no call in these data; cut-offs in other NCI protocols can differ. Some T/C values carry the count of animals alive at the toxicity check (mostly the fifth day); without a count, all were alive then.
# Tested on: CD2F1 mice, L1210 leukemia ip, survival T/C
# Test: NCI In Vivo Anticancer Drug Screen. Data for tumor model L1210 Leukemia (intraperitoneal) in CD2F1 (CDF1) mice
# Conditions: higher T/C = longer survival
# Summary of the method: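 Transplantable tumor in mice; compound-treated vs vehicle-treated groups. Read-out = treated/control ratio of the measured endpoint.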
smiles,measurement,setting,value
O=NN(CCCl)C(=O)NC1CCCCC1,T/C,"T/C endpoint: mean survival time, dose: 0.13 mg/kg/injection, schedule: Q03HX008 (oral), vehicle: saline",133 % of control
same,T/C,"T/C endpoint: mean survival time, dose: 2.0 mg/kg/injection, schedule: Q03HX024 (oral), vehicle: saline",135 % of control
same,survivor count,"T/C endpoint: mean survival time, dose: 2.0 mg/kg/injection, schedule: Q03HX040 (oral), vehicle: saline",10 of 10
same,survivor count,"T/C endpoint: mean survival time, dose: 4.0 mg/kg/injection, schedule: Q03HX008 (oral), vehicle: saline",10 of 10
same,survivor count,"T/C endpoint: mean survival time, dose: 4.0 mg/kg/injection, schedule: Q03HX040 (oral), vehicle: saline",7 of 10
same,T/C,"T/C endpoint: mean survival time, dose: 8.0 mg/kg/injection, schedule: Q01DX001 (ip), vehicle: other",127 % of control
same,survivor count,"T/C endpoint: mean survival time, dose: 8.0 mg/kg/injection, schedule: Q03HX008 (oral), vehicle: saline",9 of 10
same,T/C,"T/C endpoint: mean survival time, dose: 8.0 mg/kg/injection, schedule: Q03HX024 (ip), vehicle: saline",133 % of control
same,survivor count,"T/C endpoint: mean survival time, dose: 8.0 mg/kg/injection, schedule: Q03HX024 (oral), vehicle: saline",7 of 10
same,T/C,"T/C endpoint: mean survival time, dose: 8.0 mg/kg/injection, schedule: Q03HX040 (ip), vehicle: saline",145 % of control
same,survivor count,"T/C endpoint: mean survival time, dose: 8.0 mg/kg/injection, schedule: Q03HX040 (oral), vehicle: saline",1 of 10
same,T/C,"T/C endpoint: mean survival time, dose: 8.0 mg/kg/injection, schedule: Q04DX003 (ip), vehicle: saline + alcohol",129 % of control
same,T/C,"T/C endpoint: mean survival time, dose: 14.0 mg/kg/injection, schedule: Q01DX001 (ip), vehicle: carboxymethylcellulose (CMC)",137 % of control
same,T/C,"T/C endpoint: mean survival time, dose: 16.0 mg/kg/injection, schedule: Q01DX001 (ip), vehicle: saline",134 % of control
same,T/C,"T/C endpoint: mean survival time, dose: 16.0 mg/kg/injection, schedule: Q03HX008 (ip), vehicle: saline",128 % of control
same,T/C,"T/C endpoint: mean survival time, dose: 32.0 mg/kg/injection, schedule: Q04DX003 (ip), vehicle: saline + alcohol",137 % of control
same,T/C,"T/C endpoint: mean survival time, dose: 64.0 mg/kg/injection, schedule: Q04DX003 (oral), vehicle: saline",129 % of control
same,survivor count,"T/C endpoint: mean survival time, dose: 128.0 mg/kg/injection, schedule: Q01DX001 (ip), vehicle: other",6 of 6
same,survivor count,"T/C endpoint: mean survival time, dose: 128.0 mg/kg/injection, schedule: Q01DX005 (ip), vehicle: saline",10 of 10
same,survivor count,"T/C endpoint: mean survival time, dose: 128.0 mg/kg/injection, schedule: Q01DX005 (oral), vehicle: saline",10 of 10
same,survivor count,"T/C endpoint: mean survival time, dose: 128.0 mg/kg/injection, schedule: Q01DX009 (ip), vehicle: saline",10 of 10
same,survivor count,"T/C endpoint: mean survival time, dose: 128.0 mg/kg/injection, schedule: Q01DX009 (oral), vehicle: saline",9 of 10
same,T/C,"T/C endpoint: mean survival time, dose: 128.0 mg/kg/injection, schedule: Q03HX024 (ip), vehicle: saline",137 % of control
same,survivor count,"T/C endpoint: mean survival time, dose: 128.0 mg/kg/injection, schedule: Q04DX003 (ip), vehicle: saline",10 of 10
same,survivor count,"T/C endpoint: mean survival time, dose: 256.0 mg/kg/injection, schedule: Q01DX001 (oral), vehicle: saline",6 of 10
same,survivor count,"T/C endpoint: mean survival time, dose: 256.0 mg/kg/injection, schedule: Q01DX005 (oral), vehicle: saline",8 of 10
same,survivor count,"T/C endpoint: mean survival time, dose: 256.0 mg/kg/injection, schedule: Q01DX009 (oral), vehicle: saline",8 of 10
same,T/C,"T/C endpoint: mean survival time, dose: 512.0 mg/kg/injection, schedule: Q01DX001 (oral), vehicle: saline",144 % of control [7 of 10 alive]
same,survivor count,"T/C endpoint: mean survival time, dose: 512.0 mg/kg/injection, schedule: Q01DX005 (oral), vehicle: saline",1 of 10
same,survivor count,"T/C endpoint: mean survival time, dose: 512.0 mg/kg/injection, schedule: Q01DX009 (oral), vehicle: saline",1 of 10
same,survivor count,"T/C endpoint: mean survival time, dose: 512.0 mg/kg/injection, schedule: Q04DX003 (oral), vehicle: saline",6 of 10
same,T/C,"T/C endpoint: median survival time, dose: 2.0 mg/kg/injection, schedule: Q01DX009 (ip), vehicle: Klucel (hydroxypropylcellulose) (HPC)",148 % of control
same,T/C,"T/C endpoint: median survival time, dose: 4.0 mg/kg/injection, schedule: Q01DX009 (ip), vehicle: Klucel (hydroxypropylcellulose) (HPC)","162, 175, 190, 260 % of control"
same,T/C,"T/C endpoint: median survival time, dose: 8.0 mg/kg/injection, schedule: Q01DX009 (ip), vehicle: Klucel (hydroxypropylcellulose) (HPC)","232, 259, 365, 375 % of control"
same,T/C,"T/C endpoint: median survival time, dose: 16.0 mg/kg/injection, schedule: Q01DX009 (ip), vehicle: Klucel (hydroxypropylcellulose) (HPC)","287, 306, 348, 365 % of control"
same,T/C,"T/C endpoint: median survival time, dose: 24.0 mg/kg/injection, schedule: Q01DX001 (ip), vehicle: distilled water + Tween-80 + alcohol",127 % of control
same,T/C,"T/C endpoint: median survival time, dose: 32.0 mg/kg/injection, schedule: Q01DX009 (ip), vehicle: Klucel (hydroxypropylcellulose) (HPC)","127, 137, 304, 348 % of control"
same,survivor count,"T/C endpoint: median survival time, dose: 128.0 mg/kg/injection, schedule: Q01DX009 (ip), vehicle: Klucel (hydroxypropylcellulose) (HPC)",3 of 6 and 6 of 6
COCNC(=S)N/N=C/c1ccccn1,survivor count,"T/C endpoint: mean survival time, dose: 100.0 mg/kg/injection, schedule: Q04DX002 (ip), vehicle: saline with Tween-80",1 of 3
same,survivor count,"T/C endpoint: mean survival time, dose: 200.0 mg/kg/injection, schedule: Q04DX002 (ip), vehicle: saline with Tween-80",0 of 3
same,survivor count,"T/C endpoint: mean survival time, dose: 400.0 mg/kg/injection, schedule: Q04DX002 (ip), vehicle: saline with Tween-80",0 of 3
CC(C(=O)c1ccccc1)C(N[N+](C)(C)C)c1ccccc1 (centres undefined),survivor count,"T/C endpoint: mean survival time, dose: 50.0 mg/kg/injection, schedule: Q04DX003 (ip), vehicle: saline with Tween-80",0 of 3
same,survivor count,"T/C endpoint: mean survival time, dose: 100.0 mg/kg/injection, schedule: Q04DX003 (ip), vehicle: saline with Tween-80",0 of 3
O=C(/C=C/c1ccccn1)c1ccccc1,survivor count,"T/C endpoint: mean survival time, dose: 400.0 mg/kg/injection, schedule: Q04DX002 (ip), vehicle: Klucel (hydroxypropylcellulose) (HPC)",1 of 3
CCOC(=O)CCCN(C)C(C)(C)C#N,survivor count,"T/C endpoint: mean survival time, dose: 200.0 mg/kg/injection, schedule: Q01DX009 (ip), vehicle: saline with Tween-80",3 of 6
COc1cc(NCc2ccc3nc(N)nc(N)c3c2C)cc(OC)c1OC,T/C,"T/C endpoint: mean survival time, dose: 7.9 mg/kg/injection, schedule: Q01DX009 (ip), vehicle: Klucel (hydroxypropylcellulose) (HPC)",137 % of control
same,T/C,"T/C endpoint: mean survival time, dose: 8.64 mg/kg/injection, schedule: Q01DX009 (ip), vehicle: other",145 % of control
same,T/C,"T/C endpoint: mean survival time, dose: 10.0 mg/kg/injection, schedule: Q01DX009 (ip), vehicle: sodium bicarbonate",134 and 136 % of control
same,T/C,"T/C endpoint: mean survival time, dose: 11.9 mg/kg/injection, schedule: Q01DX009 (ip), vehicle: Klucel (hydroxypropylcellulose) (HPC)",149 % of control
same,T/C,"T/C endpoint: mean survival time, dose: 14.4 mg/kg/injection, schedule: Q01DX009 (ip), vehicle: other",145 % of control
same,T/C,"T/C endpoint: mean survival time, dose: 15.8 mg/kg/injection, schedule: Q01DX009 (ip), vehicle: water",133 % of control
same,T/C,"T/C endpoint: mean survival time, dose: 23.7 mg/kg/injection, schedule: Q01DX009 (ip), vehicle: water",139 % of control
same,T/C,"T/C endpoint: mean survival time, dose: 35.6 mg/kg/injection, schedule: Q01DX009 (ip), vehicle: water",146 % of control
same,T/C,"T/C endpoint: mean survival time, dose: 53.3 mg/kg/injection, schedule: Q01DX009 (ip), vehicle: water",135 % of control
same,T/C,"T/C endpoint: mean survival time, dose: 60.0 mg/kg/injection, schedule: Q04DX003 (ip), vehicle: sodium bicarbonate",144 % of control
same,T/C,"T/C endpoint: mean survival time, dose: 120.0 mg/kg/injection, schedule: Q01DX009 (ip), vehicle: water",139 % of control
same,T/C,"T/C endpoint: median survival time, dose: 7.5 mg/kg/injection, schedule: Q01DX005 (ip), vehicle: Klucel (hydroxypropylcellulose) (HPC)",130 % of control
same,T/C,"T/C endpoint: median survival time, dose: 10.0 mg/kg/injection, schedule: Q01DX009 (ip), vehicle: sodium bicarbonate",125 and 134 % of control
same,T/C,"T/C endpoint: median survival time, dose: 12.0 mg/kg/injection, schedule: Q01DX009 (ip), vehicle: distilled water + Tween-80",137 % of control
same,T/C,"T/C endpoint: median survival time, dose: 12.5 mg/kg/injection, schedule: Q01DX009 (ip), vehicle: water",129 and 136 % of control
same,T/C,"T/C endpoint: median survival time, dose: 15.0 mg/kg/injection, schedule: Q01DX005 (ip), vehicle: Klucel (hydroxypropylcellulose) (HPC)",144 % of control
same,T/C,"T/C endpoint: median survival time, dose: 18.0 mg/kg/injection, schedule: Q01DX009 (ip), vehicle: distilled water + Tween-80",139 % of control
same,T/C,"T/C endpoint: median survival time, dose: 20.0 mg/kg/injection, schedule: Q01DX009 (ip), vehicle: water",139 % of control
same,T/C,"T/C endpoint: median survival time, dose: 25.0 mg/kg/injection, schedule: Q01DX009 (ip), vehicle: water",138 % of control
same,T/C,"T/C endpoint: median survival time, dose: 27.0 mg/kg/injection, schedule: Q01DX009 (ip), vehicle: distilled water + Tween-80",143 % of control [9 of 10 alive]
same,T/C,"T/C endpoint: median survival time, dose: 30.0 mg/kg/injection, schedule: Q01DX009 (ip), vehicle: water",146 % of control
same,T/C,"T/C endpoint: median survival time, dose: 40.0 mg/kg/injection, schedule: Q01DX009 (ip), vehicle: Klucel (hydroxypropylcellulose) (HPC)",129 % of control
same,survivor count,"T/C endpoint: median survival time, dose: 120.0 mg/kg/injection, schedule: Q01DX005 (ip), vehicle: Klucel (hydroxypropylcellulose) (HPC)",6 of 6
same,survivor count,"T/C endpoint: median survival time, dose: 200.0 mg/kg/injection, schedule: Q01DX009 (ip), vehicle: water",0 of 6
